Source: paper PMC10163288
This is one part of the list.

B1: il10ra_site1_normal_mot_HHH_b2_02693_af2_000000213_0001_19_35_H_._HHH_b2_04018_af2_0001_0000100002_0000002_0 (protein)
chain: SSSSDEVERIVEELLEEAKELEERGNPEEALRALARAAARASRNNNKELLEKVQQAQIELLSSSS
B2: il10ra_site1_normal_mot_HHH_b2_03038_000000109_0001_1_20_H_._HHH_b2_08018_0001_0000300011_0000002_0_af2pred_0001 (protein)
chain: SSSSSDKEELEELIRQLEEALEEGNLRLLIELARELNKLAVELNDPEALEVVHRVTEAFSSSSSS
B3: il10ra_site1_sap_23_mot_HHH_b2_04499_af2_000000256_0001_42_56_H_._HHH_b1_06919_af2_0001_0000900022_0000001_0_0001 (protein)
chain: SSSSDEEVEELIKEAQELLERGDPREAARVLQRAVRLALEAGDPELLQEIWELVREIAERGSSSS
B4: il10ra_site1_normal_mot_HHH_b2_00345_af2_000000013_0001_42_56_H_._HHH_b1_01292_0001_0000200026_0000001_0 (protein)
chain: SSSSSSDISELAIEALRILHRRSDPELLKELWELFKLVIEHGDPEYEEEFREFIEEVTSSSSSSS
B5: il10ra_site1_normal_mot_HHH_b1_01821_000000158_0001_23_39_H_._HHH_b2_00650_af2_0001_0000600028_0000001_0 (protein)
chain: SSSSSDEEERIEELLEELEEVLREGDDERASEIAIEAVQLAQEAGDQEALQLVWRLFQNNSSSSS
B6: il10ra_site1_sap_16_mot_HHH_b2_00943_af2_000000149_0001_1_17_H_._HHH_b1_06222_0001_0000300032_0000001_0_0001 (protein)
chain: SSSSDKRSERIYELIKRVAELHYEGNPEEAQELLEEAKELVEELGDQVFRFNIELLERQLNSSSS
B7: il10ra_site1_normal_mot_HHH_b1_06816_000000239_0001_1_19_H_._HHH_b1_03485_0001_0000100006_0000002_0_af2pred_0001 (protein)
chain: SSSSDEEAREVFEEARKQLEELREEGDVEEFTRLVREVIELLLELGNPEEARKLSQEASKLSSSS
B8: il10ra_site1_normal_mot_d2735b3c0fe9b97dc03c9ec5d23a03fd_0001_1_af2_000000071_0001_17_32_H_._HHH_b1_04565_af2_0001_0000200013_0000002_0 (protein)
chain: SSSSSDDLEQRIEAILFFAKLTQNPEVAKKAIEYAIELAEEINNEELLKEAEKLLEELRSSSSSS
B9: il10ra_site1_sap_22_mot_49468d6c54d8157f7969f91124172a68_0001_af2_000000173_0001_37_51_H_._ac211477d601265d37a31625d54e07f1_0001_1_af2_0001_0000400013_0000002_0 … (protein)
chain: SSSSSSDEEEEVQELLEEAEHIEDPRELTEVLLEATRVAIQLGDPKLLQLVWRVVHRLSSSSSSS
B10: il10ra_site1_normal_mot_8756ee2cf497b5429c717dfc0c0bcfd6_0001_000000186_0001_1_13_H_._HHH_b1_06748_af2_0001_0000200008_0000001_0 (protein)
chain: SSSSDEDAEEVIELLREAAELHSDGNPEEAKEVLEEARRLAEENNNDVLLAQIEYLERLLDSSSS
B11: il10ra_site1_normal_mot_HHH_b2_03743_af2_000000240_0001_38_52_H_._HHH_b2_06571_0001_0000200010_0000001_0_af2pred_dldesign_0_af2pred (protein)
chain: SSSSSGRLELDRLRHELTDLLNAGKFEEAKKVLEELEKLAKELGDEAAIAYVEYYKKLLESSSSS
B12: il10ra_site1_sap_26_mot_HHH_b1_03277_000000286_0001_44_57_H_._HHH_b1_04841_af2_0001_0000200008_0000001_0_0001_af2pred_0001 (protein)
chain: SSSSSDEEDQERVEELLEEAKHIEDEEEVRKLVAEAHRIASEREDPELIHLVLEVYLELLSSSSS
B13: il10ra_site1_normal_mot_HHH_b2_00475_000000107_0001_44_57_H_._HHH_b2_07420_0001_0000300019_0000001_0 (protein)
chain: SSSSSSEVVELLFRAQRLLAEGNPEEAEKVVEEAKELAEELGDEELRRYVEILLHFIEAHSSSSS
B14: il10ra_site1_normal_mot_0750aae41c39e4229e2ea8fa354cc919_0001_1_000000144_0001_37_51_H_._HHH_b2_02525_0001_0000300017_0000001_0 (protein)
chain: SSSDEEQEVLELLARAARLAEEGNPEEARELVERAEELAQELNDPKLEIAVEFWRRLDEELSSSS
B15: il10ra_site1_normal_mot_HHH_b2_02337_000000026_0001_38_52_H_._HHH_b2_04113_0001_0000100006_0000001_0 (protein)
chain: SSSSDVEEELERLLEEAEELLKEGDIERLSRVLAEAVRYAFRLGNEEILRRLWELVQLAASSSSS
B16: il10ra_site1_sap_16_mot_HHH_b2_01494_af2_000000274_0001_37_50_H_._HHH_b1_00871_0001_0000400029_0000002_0_0001 (protein)
chain: SSSSDEANEEIYRLLRELIELVRKGDEEKLEELQKEIEELIREANSFVFEASLRLVERDLSSSSS
B17: il10ra_site1_normal_mot_HHH_b2_00573_000000208_0001_39_53_H_._HHH_b1_02008_0001_0000300016_0000001_0 (protein)
chain: SSSSDEEREEFERLYEEAEELLKEGDPEEVFEALRRLIELASELNDPELFRRVIRLIRELFSSSS
B18: il10ra_site1_sap_11_mot_HHH_b2_04343_af2_000000097_0001_38_52_H_._HHH_b2_06677_0001_0000200014_0000001_0_0001_af2pred_0001 (protein)
chain: SSSSDHEAEVILRKAEQAYKAYRETGDERYERAIEAALFSAEKLGDEEIVERIRELLEELKSSSS
B19: il10ra_site1_sap_19_mot_HHH_b1_07466_000000214_0001_1_19_H_._HHH_b1_03450_0001_0000300019_0000001_0_0001 (protein)
chain: SSSSSEVEERVEELIEEVEKALEQGDYQLAIELLREAVRIAAENDNPELIEELRRLAHEIVSSSS
B20: il10ra_site1_normal_mot_HHH_b2_07731_000000003_0001_42_56_H_._HHH_b2_03545_0001_0000300038_0000001_0_af2pred_dldesign_0_af2pred (protein)
chain: SSSSSEVLARVRELLDRARALYEAGKPQEAYDLLKEAALLASENKDLEAQRLVRETAAELASSSS
B21: il10ra_site1_normal_mot_HHH_b2_00475_000000107_0001_44_57_H_._8f6b033cc37342a50be9072d9d391e88_0001_0001_0000200005_0000002_0_af2pred_0001 (protein)
chain: SEEEKLLEELEKKAPDPLVRAALLSVKVALELNDPEKVKQALRLLLRILGDPRVEELLKKLEEEH
B22: il10ra_site1_sap_7_mot_HHH_b1_02464_000000069_0001_1_19_H_._HHH_b1_04704_af2_0001_0000100004_0000002_0_0001 (protein)
chain: SSSSDREEELEELLKELEKLVEEGDRERFAEVVKRVLRLAFQANDPEALQEVWRIMREYKSSSSS
B23: il10ra_site1_normal_mot_HHH_b1_06057_000000129_0001_22_38_H_._HHH_b1_06187_0001_0000100008_0000002_0 (protein)
chain: SSSSTLEESVRFALRVAEELREQGDPEAARELLEKLLELLKEAGDDELFRLVEELLEELEKSSSS
B24: il10ra_site1_sap_18_mot_HHH_b2_04275_000000272_0001_20_36_H_._HHH_b1_07345_af2_0001_0000300023_0000001_0_0001_af2pred_0001 (protein)
chain: TEEILEAVEELLRELNTPKAKALLYLIKYLRERGAPPEHILESLKAAARVLGDPEVLRLIEEAEK
B25: il10ra_site1_normal_mot_HHH_b1_00952_af2_000000199_0001_44_57_H_._66c2fca85847babee3b8944584cfd08f_0001_1_0001_0000400019_0000001_0 (protein)
chain: SQWERSLKLAFESGNLESLIEQFQWQAEFQGNPELEKVVELLREALEKRDPELLEEAIEVLEKLA
B26: il10ra_site1_sap_23_mot_HHH_b2_06507_af2_000000245_0001_1_17_H_._HHH_b1_00115_af2_0001_0000400016_0000001_0_0001 (protein)
chain: SSSSSNEELYELIKKANELLKEGNPEEAEEVLKEAEELARELGNRVFLVQVEFLLRALRSSSSSS
B27: il10ra_site1_normal_mot_HHH_b1_07449_af2_000000024_0001_1_18_H_._a87409d3d07ab778cdfa687b5837bbba_0001_0001_0000100004_0000001_0_af2pred_0001 (protein)
chain: SIEEILMELIFRFRDDPELFELLIEAYALLNEGNPEEAVEVLERVLREAGVPPEQVERLKEEAEK
B28: il10ra_site1_normal_mot_HHH_b1_01082_af2_000000031_0001_3_19_H_._HHH_b2_03304_af2_0001_0000100003_0000002_0 (protein)
chain: SSSSSDEEYRIAKEAIEEARHIEDKEEARKVIEEAIEVAEEGNNTSAAFALRHLLRLLEQSSSSS
B29: il10ra_site1_normal_mot_HHH_b2_03764_000000138_0001_1_20_H_._HHH_b2_04981_0001_0000500053_0000001_0 (protein)
chain: SSSSDEEFEEVYRLLEEASELDQEGDKEEAEKLVEEAIELAREGGNEVLTWSAEYLLRIIRSSSS
B30: il10ra_site1_sap_24_mot_104c758fc23488854646035ccb2100c6_0001_000000282_0001_15_29_H_._94e27040e1373b393086b07032fe3839_0001_af2_0001_0000400015_0000001_0_0001 (protein)
chain: SSSSSDFEEFKRLVQEVLEAIREGDEEKARELLEELERLARELNNWAAKWTVRLLEEQIRSSSSS
B31: il10ra_site1_sap_24_mot_HHH_b2_03743_af2_000000240_0001_38_52_H_._HHH_b1_00224_0001_0000300021_0000001_0_0001 (protein)
chain: SSSSDMEEELVEALERLVRQAIEWGDPESARLLLEAAEMLAEELGDPELERLVEELEELLNSSSS
B32: il10ra_site1_normal_mot_HHH_b1_05357_000000034_0001_23_39_H_._HHH_b2_05287_0001_0000100004_0000001_0_af2pred_0001 (protein)
chain: SSSSSSESEEEVKELLEEAKKIEDLEEFNYVLIRAFAVARRAGDPELEELIEEFAQEESSSSSSS
B33: il10ra_site1_normal_mot_8756ee2cf497b5429c717dfc0c0bcfd6_0001_000000186_0001_1_13_H_._HHH_b1_01787_0001_0000300030_0000001_0 (protein)
chain: SSSSSSTEELLELLREVAELEHEGNHEEAREVIEEAKELAEEAGNDVFLVQIEYLLREVNSSSSS
B34: il10ra_site1_normal_mot_HHH_b1_08176_000000188_0001_1_20_H_._HHH_b1_03017_af2_0001_0000300015_0000001_0 (protein)
chain: SSSSDEEFQEALELILEAVRLLLRGDEEEAEELLEKAKELVEKEGDERLARVIESLLEAISSSSS
B35: il10ra_site1_sap_21_mot_HHH_b2_02736_000000092_0001_22_38_H_._HHH_b1_00790_0001_0000300014_0000001_0_0001_af2pred_0001 (protein)
chain: SSSSSEEELRERIEELLEEAKHLEDPREVFELLVEAFLLALKAGDPELEELVREAAKELASSSSS
B36: il10ra_site1_normal_mot_HHH_b1_05056_000000217_0001_1_20_H_._HHH_b1_02171_0001_0000600040_0000001_0 (protein)
chain: SSSSSSSDYEEEVEELLEEAQRVSEEEASELLAKAVQLAFENSNEELLKLVWEVVKEASSSSSSS
B37: il10ra_site1_sap_21_mot_HHH_b2_03220_af2_000000223_0001_23_40_H_._HHH_b2_03430_af2_0001_0000100005_0000001_0_0001 (protein)
chain: SSSSDEELEEFVEELVEKFNLDETLERNLRLLVESLEELGFSEEEIKKLLEKSAEQIARQQSSSS

target: il10ra, Q13651; assay: yeast display titration

Apparent Kd, inactive:
B1 no binding seen
B2 no binding seen
B3 no binding seen
B4 no binding seen
B5 no binding seen
B6 no binding seen
B7 no binding seen
B8 no binding seen
B9 no binding seen
B10 no binding seen
B11 no binding seen
B12 no binding seen
B13 no binding seen
B14 no binding seen
B15 no binding seen
B16 no binding seen
B17 no binding seen
B18 no binding seen
B19 no binding seen
B20 no binding seen
B21 no binding seen
B22 no binding seen
B23 no binding seen
B24 no binding seen
B25 no binding seen
B26 no binding seen
B27 no binding seen
B28 no binding seen
B29 no binding seen
B30 no binding seen
B31 no binding seen
B32 no binding seen
B33 no binding seen
B34 no binding seen
B35 no binding seen
B36 no binding seen
B37 no binding seen

At a glance, some entries already given.
Apparent Kd, inactive:
B27 no binding seen
B28 no binding seen
